Publication PMC9237684

Protein sequences, listed by entry. Tags and fused reporters are not part of them. Lines headed by an entry give the natural chain unless they say otherwise; changes in a name come on top.
UniProt Q9SGW5: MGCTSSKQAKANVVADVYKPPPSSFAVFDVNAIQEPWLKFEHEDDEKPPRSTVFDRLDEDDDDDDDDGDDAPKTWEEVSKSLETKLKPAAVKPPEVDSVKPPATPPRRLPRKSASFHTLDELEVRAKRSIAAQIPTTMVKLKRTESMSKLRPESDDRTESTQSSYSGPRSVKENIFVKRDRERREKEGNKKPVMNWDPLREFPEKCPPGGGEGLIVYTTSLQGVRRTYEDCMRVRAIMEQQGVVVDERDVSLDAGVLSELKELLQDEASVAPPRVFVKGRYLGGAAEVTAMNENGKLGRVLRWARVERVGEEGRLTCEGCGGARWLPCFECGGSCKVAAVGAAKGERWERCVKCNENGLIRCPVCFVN
UniProt P93025: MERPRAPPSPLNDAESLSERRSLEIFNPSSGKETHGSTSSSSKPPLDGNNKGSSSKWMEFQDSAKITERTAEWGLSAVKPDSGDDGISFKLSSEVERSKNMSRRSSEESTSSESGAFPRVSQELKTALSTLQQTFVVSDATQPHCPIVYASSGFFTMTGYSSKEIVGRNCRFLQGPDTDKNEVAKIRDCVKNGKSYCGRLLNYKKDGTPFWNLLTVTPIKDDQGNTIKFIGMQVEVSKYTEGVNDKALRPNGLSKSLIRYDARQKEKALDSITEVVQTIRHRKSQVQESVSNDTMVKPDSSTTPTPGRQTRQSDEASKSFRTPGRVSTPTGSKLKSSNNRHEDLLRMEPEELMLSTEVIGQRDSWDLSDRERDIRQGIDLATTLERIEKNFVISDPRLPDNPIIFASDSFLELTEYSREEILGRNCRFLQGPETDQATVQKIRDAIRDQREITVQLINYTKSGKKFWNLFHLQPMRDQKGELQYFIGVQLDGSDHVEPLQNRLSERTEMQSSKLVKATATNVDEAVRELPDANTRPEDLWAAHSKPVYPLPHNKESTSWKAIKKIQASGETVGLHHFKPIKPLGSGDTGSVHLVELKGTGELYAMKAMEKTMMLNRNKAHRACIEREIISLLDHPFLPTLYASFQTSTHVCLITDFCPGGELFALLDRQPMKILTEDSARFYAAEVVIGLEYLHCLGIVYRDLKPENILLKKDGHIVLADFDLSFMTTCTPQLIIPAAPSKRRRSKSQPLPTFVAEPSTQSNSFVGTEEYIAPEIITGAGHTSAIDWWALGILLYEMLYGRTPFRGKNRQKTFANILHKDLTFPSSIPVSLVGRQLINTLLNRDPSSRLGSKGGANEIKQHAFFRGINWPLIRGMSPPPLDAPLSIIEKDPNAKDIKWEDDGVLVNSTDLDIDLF

B1: 14-3-3 OMEGA with HA tag (OMEGA:HA) (protein, UniProt Q01525 1-259)
chain: MASGREEFVYMAKLAEQAERYEEMVEFMEKVSAAVDGDELTVEERNLLSVAYKNVIGARRASWRIISSIEQKEESRGNDDHVTAIREYRSKIETELSGICDGILKLLDSRLIPAAASGDSKVFYLKMKGDYHRYLAEFKTGQERKDAAEHTLAAYKSAQDIANAELAPTHPIRLGLALNFSVFYYEILNSPDRACNLAKQAFDEAIAELDTLGEESYKDSTLIMQLLRDNLTLWTSDMQDDAADEIKEAAAPKPTEEQQ
B2: 14-3-3 KAPPA with HA tag (KAPPA:HA) (protein, UniProt P48348 1-248)
chain: MATTLSRDQYVYMAKLAEQAERYEEMVQFMEQLVSGATPAGELTVEERNLLSVAYKNVIGSLRAAWRIVSSIEQKEESRKNEEHVSLVKDYRSKVETELSSICSGILRLLDSHLIPSATASESKVFYLKMKGDYHRYLAEFKSGDERKTAAEDTMIAYKAAQDVAVADLAPTHPIRLGLALNFSVFYYEILNSSEKACSMAKQAFEEAIAELDTLGEESYKDSTLIMQLLRDNLTLWTSDMQEQMDEA
B3: 14-3-3 LAMBDA, expressed in N. benthamiana leaves (tag not stated) (protein, UniProt P48349 1-248)
chain: MAATLGRDQYVYMAKLAEQAERYEEMVQFMEQLVTGATPAEELTVEERNLLSVAYKNVIGSLRAAWRIVSSIEQKEESRKNDEHVSLVKDYRSKVESELSSVCSGILKLLDSHLIPSAGASESKVFYLKMKGDYHRYMAEFKSGDERKTAAEDTMLAYKAAQDIAAADMAPTHPIRLGLALNFSVFYYEILNSSDKACNMAKQAFEEAIAELDTLGEESYKDSTLIMQLLRDNLTLWTSDMQEQMDEA
B4: PMI1 co-expressed with THRUMIN1:YFP in N. benthamiana leaves (tag not stated) (protein, UniProt Q9C8E6 1-843)
chain: MAGEYSGSRSSNTQLLAELEALSENLYQKPQVSVGNRRTNSLALPRSSVPSLVTSADEVSTARAEDLTVSKPRARRLSLSPWRSRPKLEVEEEENVTQSNRIVKKPEESSSGSGVKEEKKGIWNWKPIRGLVRIGMQKLSCLLSVEVVAAQNLPASMNGLRLGVCVRKKETKDGAVQTMPCRVSQGSADFEETLFIKCHVYYSPANGKGSPAKFEARPFLFYLFAVDAKELEFGRHVVDLSELIQESVEKMNYEGARVRQWDMNWGLSGKAKGGELALKLGFQIMEKDGGAGIYSKQGEFGMKPSSKPKNFANSFGRKQSKTSFSVPSPKMTSRSEAWTPASGVESVSDFHGMEHLNLDEPEEKPEEKPVQKNDKPEQRAEDDQEEPDFEVVDKGVEFDDDLETEKSDGTIGERSVEMKEQHVNVDDPRHIMRLTELDSIAKQIKALESMMKDESDGGDGETESQRLDEEEQTVTKEFLQLLEDEETEKLKFYQHKMDISELRSGESVDDESENYLSDLGKGIGCVVQTRDGGYLVSMNPFDTVVMRKDTPKLVMQISKQIVVLPEAGPATGFELFHRMAGSGEELESKISSLMAIDELMGKTGEQVAFEGIASAIIQGRNKERANTSAARTVAAVKTMANAMSSGRRERIMTGIWNVEENPLTSAEEVLAVSLQKLEEMVVEGLKIQADMVDDEAPFEVSAAKGQKNPLESTIPLEEWQKEHRTQQKLTVLATVQLRDPTRRYEAVGGTVVVAVQAEEEEEKGLKVGSLHIGGVKKDAAEKRRLTAAQWLVEHGMGKKGKKKSNIKKKEKEEEEEEMLWSLSSRVMADMWLKSIRNPDVKLH
B5: KAC1 co-expressed with THRUMIN1:YFP in N. benthamiana leaves (tag not stated) (protein, UniProt Q9LX99 1-1273)
chain: MADQRSKTNRWNWEVSGFEPRKSSSNASFAESTGHRTTGPLLRRNSISTPSLPPKQAIASKVNGLKEKVKLAKEDYLELRQEATDLQEYSNAKLDRVTRYLGVLAEKSRKLDQFVLETEARISPLINEKKRLFNDLLTAKGNIKVFCRARPLFEDEGPSVIEFPGDCTICVNTSDDTLSNPKKDFEFDRVYGPHVGQAALFSDVQPFVQSALDGSNVSILSYGQTNAGKTYTMEGSNHDRGLYARCFEELFDLANSDSTSTSRFSFSLSVFEIYNEQIRDLLSETQSNLPNINMDLHESVIELGQEKVDNPLEFLGVLKSAFLNRGNYKSKFNVTHLIVSIHIYYSNTITGENIYSKLSLVDLAGSEGLIMENDSGDHVTDLLHVMNSISALGDVLSSLTSGKDSIPYDNSILTRVLADSLGGSSKTLMIVNICPSVQTLSETISCLNYAARARNTVPSLGNRDTIKKWRDVASDARKELLEKERENQNLKQEVVGLKKALKDANDQCVLLYSEVQRAWKVSFTLQSDLKSENIMLVDKHRLEKEQNSQLRNQIAQFLQLDQEQKLQMQQQDSAIQNLQAKITDLESQVSEAVRSDTTRTGDALQSQDIFSPIPKAVEGTTDSSSVTKKLEEELKKRDALIERLHEENEKLFDRLTERSMAVSTQVLSPSLRASPNIQPANVNRGEGYSAEAVALPSTPNKNNGAITLVKSGTDLVKTTPAGEYLTAALNDFDPEEYEGLAAIADGANKLLMLVLAAVIKAGASREHEILAEIRDSVFSFIRKMEPRRVMDTMLVSRVRILYIRSLLARSPELQTIRVSPVECFLEKPNTGRSKSTSRGSSPGRSPVRYLDTQIHGFKVNIKAERRNKLASVVSRMRGLEQDAGRQQVTGVKLREMQDEAKSFAIGNKALAALFVHTPAGELQRQIRLWLAENFEFLSVTSDDVSGGNGGQLELLSTAIMDGWMAGLGAAVPPHTDALGQLLSEYAKRVYTSQMQHMKDIAGTLAAEEAEDAGQVSKLRSALESVDHKRRKILQQMKSDAALLNLEEGSSPIPNPSTAAEDSRLASLISLDGILKQVKEITRQASVHVLSKSKKKALLESLDELTERMPSLLDIDHPCAQREIATAHQLVETIPEQEDTNILEQSHDRRPSLESISSGETDVSQWNVLQFNTGSSAPFIIKCGGNNNSELVIKADARVQEPKGGEIVRVVPRPSVLVNMSLEEMKQMFVQLPEALSLLALARTADGTRARYSRLYKTLAMKVPSLKDLVSELE

These molecules were tested against THRUMIN1:YFP, transiently expressed in N. benthamiana leaves (Arabidopsis thaliana) (UniProt Q9SGW5) (assay: co-IP; N. benthamiana leaves transiently co-expressing the transgenes (35S promoter), 48 h postinfiltration, no crosslinking; YFP fusion held on GFP-Trap agarose; where noted leaves given 10 min high blue light (~50 umol m^-2 s^-1) or darkness before extraction).

binding | Molecule
no binding | Phototropin2 (Phot2), transiently expressed in N. benthamiana leaves (from UniProt P93025 1-915) (receptor)

Molecular target: THRUMIN1:YFP, transiently expressed in N. benthamiana leaves (Arabidopsis thaliana) (UniProt Q9SGW5)
Assay: as above
Remark: another data set of the same source

binding | Molecule
binds | B1
binds | B2
binds | B3
no binding | B4
no binding | B5

These are yes or no findings as the source states them, for the method shown. Binding seen in cells or lysates may run through a third protein. For part of these data: Binding can be weak; no strength is given. For part of these data: Tags and fused reporters may be left off the sequences shown.
